# Results of single-concentration screens

From ChEMBL document CHEMBL3988442, “University of Dundee, Small-Polar-MMV Screening Library” (2021).

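Whole-parasite assay of Trypanosoma brucei over 72 hours; the read-out is not stated. Compounds at 30 µM. Direction is inferred from retests: higher values go with stronger inhibition. Values scatter widely below zero; nearly all retest evidence comes from the higher of the two concentrations used. Size under these conditions: about 64,000 compounds, about 940 of them at 50% or above in at least one test.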

Values are the deposited “Percent Effect”, in %. How 0% and 100% were set is not recorded. Most values in the screen are low, and negative values occur. Compounds were drawn at random from those tested, without regard to their results.

| structure | percent effect |
|---|---|
| `Cc1nn(C)c(Cl)c1C1CCCN1c1ncnc2sccc12` (centres undefined) | 8.364 |
| `Cl.O=C(NCCn1nc(C2CCNC2)c2cccnc21)c1ccccn1` (centres undefined) | -13.69 |
| `O=C(O)C1(Oc2ccccc2F)CCN(C/C=C/c2ccco2)CC1` | 4.484 |
| `[H][C@]12CC[C@]([H])(CN(C(=O)c3cccnc3)C1)N(Cc1ccc(F)cc1Cl)C2` | -36.68 |
| `CCN1CCC(CC(=O)NCc2nc(C)cc(C)n2)CC1` | -50.93 |
| `CC(C)(C)c1n[nH]c(C2CN(CC3CCC3)CCO2)n1` (centres undefined) | -14.11 |
| `Cn1c(CCC(=O)N2CCCC3(CNC(=O)O3)C2)nc2cccnc21` (centres undefined) | -36.06 |
| `[H][C@]12CC[C@]([H])(CN(c3ncccn3)C1)N(C(=O)c1ccccc1C#N)C2` | -37.68 |
| `O=C(O)C(F)(F)F.[H][C@@]12CN(CC3CCOCC3)C[C@]1([H])C(=O)N(c1cnn(C)c1)C2` | -35.21 |
| `Cc1cc(=O)[nH]c(SC(C)C(=O)N2CCC(c3ncc[nH]3)CC2)n1` (centres undefined) | -22.34 |
| `CC(NC(N)=O)C(=O)NCc1ccnc(Oc2ccc(F)cc2)c1` (centres undefined) | -37.85 |
| `Nc1cc(CCC2CN(Cc3cccc(C(=O)O)c3)CCO2)ccn1` (centres undefined) | 12.64 |
| `COc1ccc(C(O)CNC(=O)NCc2csc(C)n2)cc1` (centres undefined) | 5.849 |
| `CCOc1ccccc1NC(=O)NCc1ccoc1` | -38.02 |
| `I.c1ccc(Sc2ccc3c(c2)OCO3)c(CNC2=NCCN2)c1` | 10.46 |
| `Cc1ccc(C)c(-n2cc(CN3CCOCC3)c(-c3ccccc3)n2)c1` | 5.174 |
| `O=C(NC1CCCN(c2ccc(OC(F)F)cc2)C1)c1ccon1` (centres undefined) | -71.98 |
| `Cc1cc(C)n(-c2ccccc2NC(=O)NCCS(=O)(=O)CC(C)C)n1` | 24.28 |
| `CN1CCN(C(=O)C2CC=CC2)c2ccccc21` | -61.26 |
| `O=C(COCC(F)(F)F)NC1CCCc2cc(OC(F)F)ccc21` (centres undefined) | -32.4 |
| `CCCNC(=O)C(C)Nc1ccn(Cc2ccccn2)n1` (centres undefined) | 11.3 |
| `CN(C)C(=O)N1CCOCC2(CCN(c3ccccn3)C2)C1.O=C(O)C(F)(F)F` (centres undefined) | -37.67 |
| `Nc1nc2c(c(N3CCC(CN4CCCC4=O)CC3)n1)CCNCC2` | -22.23 |
| `O=C(c1ccco1)N1CCOCC2(C1)CN(c1ccccc1)C(=O)CO2` (centres undefined) | 4.994 |
| `[H][C@@]12CCN(C(=O)Cc3ccccn3)C[C@]1([H])[C@H](c1nnc(C)o1)CCO2` | -0.1729 |
| `O=C1CN(Cc2cn(CC3CCN(C4CCSCC4)CC3)nn2)CCN1` | -103.4 |
| `CC(=O)Nc1nc(C(=O)N2CCCC(n3ccnc3C)C2)cs1` (centres undefined) | 12.51 |
| `O=C(CCc1ccccc1)NCC(O)c1c(F)cccc1F` (centres undefined) | -24.34 |
| `Cn1c(=O)n(C)c2nc(Cl)c(CC(=O)c3ccc(F)cc3)n2c1=O` | -46.03 |
| `Cn1ncc2c(N3CC(N4CCCCC4)C3)nc(-c3ccncc3)nc21` | -5.131 |
| `COc1cccc2ccc(N3CCC(O)(c4ccc(C)cn4)CC3)nc12` | -21.04 |
| `O=c1ccc(-c2ccccc2F)nn1CN1CCCCCC1` | -21.82 |
| `COc1ccc(CN(C)CC(O)COCc2ccccc2Cl)c(OC)c1.O=C(O)C(=O)O` (centres undefined) | 19.09 |
| `c1ccc(C(Cn2cnnc2)N2CCOCC2)nc1` (centres undefined) | -9.92 |
| `CSc1ccc(C(C(=O)O)N2CCC(CO)CC2)cc1` (centres undefined) | -19.92 |
| `CN1CCN(c2ccc(NC(=O)c3ccoc3)c(C(F)(F)F)c2)CC1` | 25.45 |
| `Cn1cnc2cc(C(=O)NS(=O)(=O)CC3CCCC3)ccc21` | 9.658 |
| `CCOc1c(Cl)cc(Cl)cc1CNCCCn1ccnc1` | -4.834 |
| `CCN(CC)C1CCN(C(=O)NCc2cccc(-n3ccnc3)c2)C1` (centres undefined) | -9.031 |
| `[H][C@]12CC[C@]([H])(CN(S(=O)(=O)c3cc(-n4cccn4)ccc3C)C1)N(C)C2` | 75.01 |
| `O=C(O)c1cc(S(=O)(=O)Nc2ccc(Cl)cc2)cc2c1OCCO2` | 6.606 |
| `COCC1CN(C(=O)c2cccc(C)n2)Cc2ncnn2C1` (centres undefined) | -45.03 |
| `CC(=O)NCC(=O)NCC1Cn2nnc(-c3cccc(F)c3)c2CO1` (centres undefined) | -16.45 |
| `CCOCC1CN(C(=O)c2cnoc2C)Cc2cnn(C)c21.O=C(O)C(F)(F)F` (centres undefined) | -5.791 |
| `Cl.NC(=O)c1ccc(C2CCCNC2)nc1` (centres undefined) | -10.27 |
| `CC(C)(C)CCN1CCN(c2snc(Cl)c2C#N)CC1` | 100.4 |
| `CN(C)C(=O)CO[C@H]1CO[C@@]2(CCN(S(C)(=O)=O)C2)C1` | 2.305 |
| `CCC(SC)C(=O)N1CCC(n2ccnn2)CC1` (centres undefined) | -24.69 |
| `CNC(=O)CN1CCOCC2(C1)CN(C(=O)C(C)C)CCO2.O=C(O)C(F)(F)F` (centres undefined) | -6.033 |
| `CS(=O)(=O)c1ccc(OCCNCc2c(F)cccc2F)cc1` | -30.32 |
| `CN(C)c1ncc2c(n1)C1(CCN(CC3CC3)C1)COC2.O=C(O)C(F)(F)F` (centres undefined) | -5.429 |

For reference, 4 entries once more:

{"structure": "Cn1ncc2c(N3CC(N4CCCCC4)C3)nc(-c3ccncc3)nc21", "percent effect": -5.131}
{"structure": "COc1ccc(CN(C)CC(O)COCc2ccccc2Cl)c(OC)c1.O=C(O)C(=O)O", "stereo": "centres undefined", "percent effect": 19.09}
{"structure": "Cc1ccc(C)c(-n2cc(CN3CCOCC3)c(-c3ccccc3)n2)c1", "percent effect": 5.174}
{"structure": "O=C(O)C(F)(F)F.[H][C@@]12CN(CC3CCOCC3)C[C@]1([H])C(=O)N(c1cnn(C)c1)C2", "percent effect": -35.21}